{
  "source": "the supplement of paper PMC4604168 (melanoma cell lines)",
  "note": "This is one part of the list. Many values rest on one well or one pass, so single values are uncertain.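 The apoptosis fraction was the count of cleaved-PARP antibody-stained nuclei relative to all DNA-stained nuclei, imaged in 1,536-well plates. Screening doses were set so most cells survived, and baseline and induced cleaved-PARP levels vary greatly across cell lines.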",
  "data": [
    {"test_system": "SkMel30", "test": "cleaved PARP positive nuclei fraction relative to DMSO control; melanoma cells; higher = more apoptosis", "settings": "library dose: low library concentration; 72 h", "units": {"cleaved PARP positive nuclei fraction": "%"}, "values": [
      {"smiles": "c1cc(-c2cnn3cc(-c4ccc(OCCN5CCCCC5)cc4)cnc23)ccn1", "note": "[Dorsomorphin] + CCCCCCCCCCCC1=C(O)C(=O)C=C(O)C1=O [Embelin] (first compound 0.4 µM, partner dose 1.2 µM)", "cleaved PARP positive nuclei fraction": 16.1},
      {"smiles": "COC(=O)c1sccc1S(=O)(=O)Nc1ccc(Nc2ccccc2)cc1OC", "note": "+ O=C(O)C(=O)Nc1sc2c(c1C(=O)O)CCNC2 [TCS401] (first compound 1 µM, partner dose 1.66667 µM)", "cleaved PARP positive nuclei fraction": 53.5},
      {"smiles": "O=C(Nc1ccccc1)c1cc([N+](=O)[O-])ccc1Cl", "note": "+ COc1ccc(-c2ccc3c(N4CCOCC4)nc(N4C[C@@H](C)O[C@@H](C)C4)nc3n2)cc1CO [KU0063794] (first compound 2 µM, partner dose 0.02 µM)", "cleaved PARP positive nuclei fraction": 283},
      {"smiles": "O=C(O)c1ccc(-c2c[nH]c3ncc(-c4ccccc4)cc23)cc1C1CCCC1", "note": "+ COc1cc2c(Oc3ccc4[nH]c(C)cc4c3F)ncnc2cc1OCCCN1CCCC1 [cediranib] (first compound 0.16 µM, partner dose 0.4 µM)", "cleaved PARP positive nuclei fraction": 70.5},
      {"smiles": "CN(C)S(=O)(=O)c1ccc2c(c1)/C(=C/c1cc3c([nH]1)CCCC3)C(=O)N2", "note": "+ CN(NC(=O)CC(=O)NN(C)C(=S)c1ccccc1)C(=S)c1ccccc1 [STA4783] (first compound 0.4 µM, partner dose 0.006 µM)", "cleaved PARP positive nuclei fraction": 57.8},
      {"smiles": "O=C(O)c1ccc(-c2c[nH]c3ncc(-c4ccccc4)cc23)cc1C1CCCC1", "note": "+ NCC(=O)Nc1ccc(-n2nc(C(F)(F)F)cc2-c2ccc3c(ccc4ccccc43)c2)cc1 [OSU03012] (first compound 0.16 µM, partner dose 1 µM)", "cleaved PARP positive nuclei fraction": 118},
      {"smiles": "CN(C)S(=O)(=O)c1ccc2c(c1)/C(=C/c1cc3c([nH]1)CCCC3)C(=O)N2", "note": "+ COc1cc2c(Oc3ccc4[nH]c(C)cc4c3F)ncnc2cc1OCCCN1CCCC1 [cediranib] (first compound 0.4 µM, partner dose 0.4 µM)", "cleaved PARP positive nuclei fraction": 68},
      {"smiles": "COC(=O)c1sccc1S(=O)(=O)Nc1ccc(Nc2ccccc2)cc1OC", "note": "+ Oc1cc(-c2nc(-c3ccccc3)[nH]c2-c2ccncc2)ccc1Cl [L779450] (first compound 1 µM, partner dose 0.2 µM)", "cleaved PARP positive nuclei fraction": 59.4},
      {"smiles": "O=C1NC(=O)/C(=C/c2ccc(-c3ccc(F)cc3O)o2)S1", "note": "+ CCCCCCCCCCCC1=C(O)C(=O)C=C(O)C1=O [Embelin] (first compound 1 µM, partner dose 1.2 µM)", "cleaved PARP positive nuclei fraction": 13.7},
      {"smiles": "COc1cc(N2CCC(N3CCN(C)CC3)CC2)ccc1Nc1ncc(Cl)c(Nc2ccccc2S(=O)(=O)C(C)C)n1", "note": "+ CC(C)CCN1c2nc(Nc3cc(F)c(O)c(F)c3)ncc2N(C)C(=O)C1C [BID1870] (first compound 0.08 µM, partner dose 0.2 µM)", "cleaved PARP positive nuclei fraction": 79.3},
      {"smiles": "CN(C)S(=O)(=O)c1ccc2c(c1)/C(=C/c1cc3c([nH]1)CCCC3)C(=O)N2", "note": "+ O=C(O)c1ccc(-c2c[nH]c3ncc(-c4ccccc4)cc23)cc1C1CCCC1 [GSK650394] (first compound 0.4 µM, partner dose 0.16 µM)", "cleaved PARP positive nuclei fraction": 276},
      {"smiles": "COc1cc2ncnc(Nc3ccc(Oc4ccccc4)cc3)c2cc1OC", "note": "+ O=C1NC(=O)/C(=C/c2ccc(-c3ccc(F)cc3O)o2)S1 [AS252424] (first compound 2 µM, partner dose 1 µM)", "cleaved PARP positive nuclei fraction": 64.6},
      {"smiles": "CCN(CC)CCCCNc1ncc2cc(-c3cc(OC)cc(OC)c3)c(NC(=O)NC(C)(C)C)nc2n1", "note": "+ COc1cc(N2CCC(N3CCN(C)CC3)CC2)ccc1Nc1ncc(Cl)c(Nc2ccccc2S(=O)(=O)C(C)C)n1 [NVP-TAE684] (first compound 0.1 µM, partner dose 0.08 µM)", "cleaved PARP positive nuclei fraction": 18.4},
      {"smiles": "O=C(Nc1ccccc1)c1cc([N+](=O)[O-])ccc1Cl", "note": "+ Cc1cc([N+](=O)[O-])ccc1NS(=O)(=O)c1cc(Cl)ccc1Cl [FH535] (first compound 2 µM, partner dose 1 µM)", "cleaved PARP positive nuclei fraction": 26.9},
      {"smiles": "COc1ccc(-c2ccc3c(N4CCOCC4)nc(N4C[C@@H](C)O[C@@H](C)C4)nc3n2)cc1CO", "note": "+ Cn1cc(/C=C2\\C(=O)Nc3cccnc32)c2ccccc21 [GW441756] (first compound 0.02 µM, partner dose 0.4 µM)", "cleaved PARP positive nuclei fraction": 90.1},
      {"smiles": "COc1cc2c(Oc3ccc4[nH]c(C)cc4c3F)ncnc2cc1OCCCN1CCCC1", "note": "[cediranib] + O=c1cc(-c2cccc3c2Sc2ccccc2S3)oc(N2CCOCC2)c1 [KU55933] (first compound 0.4 µM, partner dose 1 µM)", "cleaved PARP positive nuclei fraction": 170}
    ]}
  ]
}
